# Results from paper PMC6386418.
# By UniProt entry, the sequences of proteins in these tests, tags left out. Where a name states a change or a piece, a line headed by the entry shows the natural chain unless it says otherwise.
# UniProt Q4V3C8: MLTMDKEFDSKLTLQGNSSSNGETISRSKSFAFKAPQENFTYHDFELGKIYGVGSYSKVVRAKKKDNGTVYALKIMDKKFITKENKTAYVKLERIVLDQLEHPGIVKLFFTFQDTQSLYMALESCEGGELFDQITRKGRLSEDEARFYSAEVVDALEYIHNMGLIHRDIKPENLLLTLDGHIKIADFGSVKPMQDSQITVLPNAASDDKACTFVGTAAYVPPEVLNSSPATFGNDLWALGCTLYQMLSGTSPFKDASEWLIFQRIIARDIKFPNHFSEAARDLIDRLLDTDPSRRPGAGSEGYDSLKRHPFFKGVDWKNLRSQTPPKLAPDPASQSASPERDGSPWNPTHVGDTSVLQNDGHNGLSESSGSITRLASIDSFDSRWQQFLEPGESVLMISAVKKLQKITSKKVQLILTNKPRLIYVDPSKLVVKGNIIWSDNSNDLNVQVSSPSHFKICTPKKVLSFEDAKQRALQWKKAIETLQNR
# Changes are numbered by the printed parent chain. These are yes or no findings as the source states them, for the method shown. In cells and extracts the contact can be indirect. For some of these results: A result given as binding can be weak or reduced; the word gives no strength. For some of these results: Where a sequence is shown, tags or fusion partners need not be part of it.
# Experiments:
# Assay in all cases: split reporter; BiFC with split YFP (pSPYNE-35S / pSPYCE-35S) in Arabidopsis Col-0 mesophyll protoplasts; 21°C in the dark for 10 to 15 hours; confocal microscopy
# [1] = biological target: T1, UCN:YFPC (UNICORN fused to the C-terminal part of YFP) (Arabidopsis thaliana) (UniProt Q9SYB9)
# T1 sequence: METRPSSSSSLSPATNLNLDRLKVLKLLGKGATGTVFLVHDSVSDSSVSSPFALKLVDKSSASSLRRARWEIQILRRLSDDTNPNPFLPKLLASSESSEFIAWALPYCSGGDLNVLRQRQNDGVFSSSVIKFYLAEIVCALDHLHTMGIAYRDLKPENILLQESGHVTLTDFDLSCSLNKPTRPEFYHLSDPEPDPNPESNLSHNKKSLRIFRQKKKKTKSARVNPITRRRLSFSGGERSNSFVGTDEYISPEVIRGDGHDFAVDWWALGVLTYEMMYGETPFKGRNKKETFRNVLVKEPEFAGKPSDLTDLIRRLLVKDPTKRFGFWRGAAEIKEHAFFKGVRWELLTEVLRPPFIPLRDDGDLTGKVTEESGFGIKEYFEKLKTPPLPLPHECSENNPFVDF
# [2] = biological target: T2, UCNKD:YFPC (UCN_(K55E)) (Arabidopsis thaliana) (UniProt Q9SYB9)
# T2 sequence: T1 sequence with K55E
# [3] = biological target: T3, UCN_(G165S):YFPC (Arabidopsis thaliana) (UniProt Q9SYB9)
# T3 sequence: T1 sequence with G165S
# [4] = biological target: T4, UCN_(KD/ΔPIF):YFPC (Arabidopsis thaliana) (UniProt Q9SYB9)
# T4 sequence: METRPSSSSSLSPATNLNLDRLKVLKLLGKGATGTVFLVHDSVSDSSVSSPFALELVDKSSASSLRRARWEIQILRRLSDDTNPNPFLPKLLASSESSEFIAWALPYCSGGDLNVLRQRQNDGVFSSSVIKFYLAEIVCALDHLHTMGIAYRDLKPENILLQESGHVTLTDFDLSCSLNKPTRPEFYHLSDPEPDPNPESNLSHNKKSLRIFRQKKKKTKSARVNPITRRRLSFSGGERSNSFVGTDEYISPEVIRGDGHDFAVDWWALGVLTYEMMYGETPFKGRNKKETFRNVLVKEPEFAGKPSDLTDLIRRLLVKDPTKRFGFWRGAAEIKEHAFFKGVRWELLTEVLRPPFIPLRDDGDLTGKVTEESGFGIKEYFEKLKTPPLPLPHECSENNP
# [5] = biological target: T5, UCN_(ΔPIF):YFPC (Arabidopsis thaliana) (UniProt Q9SYB9)
# T5 sequence: T4 sequence with E55K
binding [1],binding [2],binding [3],binding [4],binding [5],Substance
no binding,–,–,–,–,YFPN (N-terminal part of YFP alone) (domain or fragment)
binds,no binding,no binding,no binding,no binding,PDK1.2:YFPN (PDK1.2 fused to the N-terminal part of YFP) (from UniProt Q4V3C8) (enzyme)
no binding,–,–,–,–,"PDK1.2KD (PDK1.2_(K74A)), BiFC fusion (from UniProt Q4V3C8) (enzyme)"
